Experimental data taken from the supplement of paper PMC4604168 (melanoma cell lines).
The list shows a part of the results. Single values are uncertain, as repeats are few or missing.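 Imaging used 1,536-well plates; nuclei positive for cleaved PARP by antibody were divided by total DNA-stained nuclei to yield the apoptosis fraction. Doses for screening kept most cells viable, and cell lines differ markedly in resting and induced cleaved-PARP levels.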

Columns and labels:
Test in all cases: cleaved PARP positive nuclei fraction relative to DMSO control; melanoma cells; higher = more apoptosis
Conditions in all cases: library dose: low library concentration; 72 h
MZ2-MEL = test system: MZ2-MEL
MeWo = test system: MeWo
RPMI7951 = test system: RPMI7951
RVH-421 = test system: RVH-421
SkMel28 = test system: SkMel28
SkMel2 = test system: SkMel2
SkMel30 = test system: SkMel30
SkMel5 = test system: SkMel5
UACC257 = test system: UACC257
UACC62 = test system: UACC62
WM115 = test system: WM115
WM1716 = test system: WM1716
WM1745 = test system: WM1745
WM3526 = test system: WM3526
WM3619 = test system: WM3619
WM451Lu = test system: WM451Lu

Row | Compound | cleaved PARP positive nuclei fraction (MZ2-MEL) | cleaved PARP positive nuclei fraction (MeWo) | cleaved PARP positive nuclei fraction (RPMI7951) | cleaved PARP positive nuclei fraction (RVH-421) | cleaved PARP positive nuclei fraction (SkMel28) | cleaved PARP positive nuclei fraction (SkMel2) | cleaved PARP positive nuclei fraction (SkMel30) | cleaved PARP positive nuclei fraction (SkMel5) | cleaved PARP positive nuclei fraction (UACC257) | cleaved PARP positive nuclei fraction (UACC62) | cleaved PARP positive nuclei fraction (WM115) | cleaved PARP positive nuclei fraction (WM1716) | cleaved PARP positive nuclei fraction (WM1745) | cleaved PARP positive nuclei fraction (WM3526) | cleaved PARP positive nuclei fraction (WM3619) | cleaved PARP positive nuclei fraction (WM451Lu)
1 | CC[C@]1(O)C[C@H]2CN(CCc3c([nH]c4ccccc34)[C@@](C(=O)OC)(c3cc4c(cc3OC)N(C=O)[C@H]3[C@@](O)(C(=O)OC)[C@H](OC(C)=O)[C@]5(CC)C=CCN6CC[C@]43[C@@H]65)C2)C1 [vincristine] + COc1cc2c(Oc3ccc4[nH]c(C)cc4c3F)ncnc2cc1OCCCN1CCCC1 [cediranib] (first compound 0.0001 µM, partner dose 0.4 µM) | 98.6% | 79.8% | 153% | 73% | 137% | 32.9% | 147% | 71.5% | 85.7% | 190% | 222% | 185% | 77.2% | 353% | 90.4% | 252%
2 | Cc1cc(Nc2cc(N3CCN(C)CC3)nc(Sc3ccc(NC(=O)C4CC4)cc3)n2)n[nH]1 [Tozasertib] + COc1ccc(-c2ccc3c(N4CCOCC4)nc(N4C[C@@H](C)O[C@@H](C)C4)nc3n2)cc1CO [KU0063794] (first compound 0.006 µM, partner dose 0.02 µM) | 55.4% | 42.9% | 37.9% | 86.5% | 338% | 45% | 44.4% | 71.3% | 214% | 42.3% | 155% | 119% | 95.2% | 174% | 84.8% | 297%
3 | O=c1[nH]nc(Sc2ncc([N+](=O)[O-])s2)n1-c1ccc2c(c1)OCCO2 + Oc1nc(-c2ccc(C(F)(F)F)cc2)nc2c1CSCC2 [XAV939] (first compound 0.2 µM, partner dose 2 µM) | 136% | 62.2% | 68.2% | 211% | 47.2% | 118% | 69.6% | 93.8% | 105% | 327% | 161% | 107% | 92.4% | 73.4% | 97.2% | 110%
4 | N#CC[C@H](C1CCCC1)n1cc(-c2ncnc3[nH]ccc23)cn1 [ruxolitinib] + CC1(C)NC(=O)N(c2ccc([N+](=O)[O-])c(C(F)(F)F)c2)C1=O [nilutamide] (first compound 1 µM, partner dose 1 µM) | 85.8% | 92.8% | 108% | 32.1% | 34.2% | 75.6% | 59.5% | 57.3% | 186% | 77.5% | 44.1% | 37.1% | 102% | 154% | 100% | 86.4%
5 | N#CC[C@H](C1CCCC1)n1cc(-c2ncnc3[nH]ccc23)cn1 [ruxolitinib] + O=C1NC(=O)/C(=C/c2ccc(-c3ccc(F)cc3O)o2)S1 [AS252424] (first compound 1 µM, partner dose 1 µM) | 87.4% | 178% | 108% | 52.1% | 122% | 132% | 198% | 82.7% | 327% | 178% | 239% | 461% | 90.1% | 64.3% | 93.8% | 62.6%
6 | O=C(/C=C/c1cccnc1)NCCCCC1CCN(C(=O)c2ccccc2)CC1 + CO[C@@H]1[C@H](N(C)C(=O)c2ccccc2)C[C@H]2O[C@]1(C)n1c3ccccc3c3c4c(c5c6ccccc6n2c5c31)C(=O)NC4 [Midostaurin] (first compound 0.01 µM, partner dose 0.08 µM) | 1060% | 48.1% | 56.3% | 198% | 35.9% | 463% | 71.5% | 76.4% | 39.5% | 112% | 285% | 125% | 225% | 62.4% | 151% | 157%
7 | O=C(/C=C/c1cccnc1)NCCCCC1CCN(C(=O)c2ccccc2)CC1 + Cc1cc([N+](=O)[O-])ccc1NS(=O)(=O)c1cc(Cl)ccc1Cl [FH535] (first compound 0.01 µM, partner dose 1 µM) | 366% | 108% | 183% | 126% | 32% | 532% | 167% | 68.6% | 77.3% | 120% | 57.4% | 263% | 180% | 69.7% | 87.6% | 99.1%
8 | N#CC[C@H](C1CCCC1)n1cc(-c2ncnc3[nH]ccc23)cn1 [ruxolitinib] + Oc1nc(-c2ccc(C(F)(F)F)cc2)nc2c1CSCC2 [XAV939] (first compound 1 µM, partner dose 2 µM) | 49.1% | 225% | 74% | 219% | 105% | 28.2% | 70% | 175% | 59.6% | 54.5% | 53.1% | 335% | 82.6% | 189% | 67.6% | 110%
9 | O=c1[nH]nc(Sc2ncc([N+](=O)[O-])s2)n1-c1ccc2c(c1)OCCO2 + CC(C)(C)c1cnc(CSc2cnc(NC(=O)C3CCNCC3)s2)o1 [SNS-032] (first compound 0.2 µM, partner dose 0.01 µM) | 127% | 95.4% | 147% | 133% | 61.5% | 159% | 240% | 61.3% | 99.1% | 83.4% | 45.2% | 73.9% | 110% | 193% | 79.7% | 99.4%
10 | O=C(Nc1cc(C(F)(F)F)cc(C(F)(F)F)c1)c1cc(Cl)ccc1O + CO[C@@H]1[C@H](N(C)C(=O)c2ccccc2)C[C@H]2O[C@]1(C)n1c3ccccc3c3c4c(c5c6ccccc6n2c5c31)C(=O)NC4 [Midostaurin] (first compound 0.016 µM, partner dose 0.08 µM) | 106% | 131% | 171% | 104% | 267% | 105% | 60.1% | 173% | 94.7% | 55.9% | 388% | 90.7% | 116% | 69.6% | 93.2% | 60.3%
11 | Cc1ccc(Nc2nccc(N(C)c3ccc4c(C)n(C)nc4c3)n2)cc1S(N)(=O)=O [Pazopanib] + Cc1cc([N+](=O)[O-])ccc1NS(=O)(=O)c1cc(Cl)ccc1Cl [FH535] (first compound 0.4 µM, partner dose 1 µM) | 34.1% | 62.3% | 72.6% | 158% | 74.4% | 75.9% | 311% | 92.7% | 82.9% | 106% | 258% | 113% | 89.7% | 110% | 93% | 56.8%
12 | N#CC[C@H](C1CCCC1)n1cc(-c2ncnc3[nH]ccc23)cn1 [ruxolitinib] + O=C(Nc1ccccc1)c1cc([N+](=O)[O-])ccc1Cl [GW9662] (first compound 1 µM, partner dose 2 µM) | 128% | 197% | 151% | 108% | 145% | 72.7% | 178% | 84.2% | 25.6% | 117% | 65.7% | 70.1% | 102% | 251% | 87.8% | 145%
13 | CCCCCCCCCCCCCCCCCCOP(=O)([O-])OC1CC[N+](C)(C)CC1 [Perifosine] + CCCCCCCCCCCC1=C(O)C(=O)C=C(O)C1=O [Embelin] (first compound 0.4 µM, partner dose 1.2 µM) | 120% | 87.6% | 41.3% | 21.8% | 99.4% | 89.1% | 82.7% | 148% | 44.6% | 189% | 202% | 62.2% | 96.6% | 70.3% | 104% | 169%
14 | O=C(Nc1cc(C(F)(F)F)cc(C(F)(F)F)c1)c1cc(Cl)ccc1O + COc1cc2c(Oc3ccc4[nH]c(C)cc4c3F)ncnc2cc1OCCCN1CCCC1 [cediranib] (first compound 0.016 µM, partner dose 0.4 µM) | 120% | 148% | 108% | 57.8% | 42% | 117% | 81.1% | 45.6% | 269% | 73.4% | 106% | 167% | 99.7% | 142% | 109% | 145%
15 | COc1cc([C@@H]2c3cc4c(cc3[C@@H](O[C@@H]3O[C@@H]5CO[C@@H](C)O[C@H]5[C@H](O)[C@H]3O)[C@H]3COC(=O)[C@H]23)OCO4)cc(OC)c1O [etoposide] + Cn1cc(/C=C2\C(=O)Nc3cccnc32)c2ccccc21 [GW441756] (first compound 0.02 µM, partner dose 0.4 µM) | 102% | 45.3% | 70.7% | 78.2% | 19.3% | 31.6% | 83% | 81.8% | 48.6% | 39.2% | 102% | 119% | 87.2% | 60.6% | 104% | 35.7%
16 | Cc1cn(-c2cc(NC(=O)c3ccc(C)c(Nc4nccc(-c5cccnc5)n4)c3)cc(C(F)(F)F)c2)cn1 [nilotinib] + Cn1cncc1[C@@](N)(c1ccc(Cl)cc1)c1ccc2c(c1)c(-c1cccc(Cl)c1)cc(=O)n2C [tipifarnib] (first compound 0.2 µM, partner dose 0.01 µM) | 114% | 55% | 148% | 72.9% | 342% | 149% | 75.6% | 96.5% | 225% | 244% | 50.8% | 94.1% | 86% | 34.4% | 69.6% | 103%
17 | CCCCCCCCCCCCCCCCCCOP(=O)([O-])OC1CC[N+](C)(C)CC1 [Perifosine] + O=C(O)c1ccc(-c2c[nH]c3ncc(-c4ccccc4)cc23)cc1C1CCCC1 [GSK650394] (first compound 0.4 µM, partner dose 0.16 µM) | 111% | 88.5% | 153% | 44.8% | 34.3% | 165% | 61.2% | 67.2% | 58.1% | 138% | 92.2% | 150% | 96.8% | 35% | 108% | 49.5%
18 | CC[C@]1(O)C[C@H]2CN(CCc3c([nH]c4ccccc34)[C@@](C(=O)OC)(c3cc4c(cc3OC)N(C=O)[C@H]3[C@@](O)(C(=O)OC)[C@H](OC(C)=O)[C@]5(CC)C=CCN6CC[C@]43[C@@H]65)C2)C1 [vincristine] + Oc1cc(-c2nc(-c3ccccc3)[nH]c2-c2ccncc2)ccc1Cl [L779450] (first compound 0.0001 µM, partner dose 0.2 µM) | 177% | 132% | 127% | 126% | 225% | 146% | 128% | 80.5% | 97.4% | 371% | 234% | 143% | 96.4% | 127% | 154% | 59.7%

Only cleaved PARP positive nuclei fraction (RPMI7951), for some of the entries so far:
Row | Compound | cleaved PARP positive nuclei fraction (RPMI7951)
5 | N#CC[C@H](C1CCCC1)n1cc(-c2ncnc3[nH]ccc23)cn1 [ruxolitinib] + O=C1NC(=O)/C(=C/c2ccc(-c3ccc(F)cc3O)o2)S1 [AS252424] (first compound 1 µM, partner dose 1 µM) | 108%
6 | O=C(/C=C/c1cccnc1)NCCCCC1CCN(C(=O)c2ccccc2)CC1 + CO[C@@H]1[C@H](N(C)C(=O)c2ccccc2)C[C@H]2O[C@]1(C)n1c3ccccc3c3c4c(c5c6ccccc6n2c5c31)C(=O)NC4 [Midostaurin] (first compound 0.01 µM, partner dose 0.08 µM) | 56.3%
